Taken from: PubChem BioAssay AID1259262 (Sanger Institute, 2017)
The deposit covers 160 reagents; this is a part drawn at random. 93 of all reagents (58%) count as active. 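Calls refer to single siRNAs; gene-level validation required two or more siRNAs in several lines; synergy score formula unstated.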 Unmarked entries are inactive. Reagents against one gene are numbered here. Viability is capped at 1. Reagent sequences are not shown. Not stated in the record: the amount of reagent, the time to read-out.

Assay: 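Kinase knock-downs that strengthen killing by targeted cancer drugs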 (follow-up of hits)
Cells: LS513 human colorectal cancer cells
Reagent: single siRNA against human genes
Challenge: anchor drug or DMSO vehicle: cetuximab 5 µg/ml, trametinib 10 nM or BYL719 1 µM; exposure length not given
Read-out: 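Per anchor drug, a replicate-averaged synergy score, plus viability as a fraction of the non-targeting control siRNA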
Direction: synergy score with trametinib and synergy score with BYL719 and synergy score with cetuximab: higher = stronger synergistic loss of viability with drug; viability, siRNA with trametinib and viability, siRNA with vehicle only: higher = more viable cells
Active means: 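Called active if at least one of the three drugs gives a synergy score over 0.10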
Meaning of the calls: active = synergy with at least one drug; inactive = no synergy with any drug

| gene knocked down | reagent no. | synergy score with trametinib | synergy score with BYL719 | synergy score with cetuximab | viability, siRNA with trametinib (fraction of control) | viability, siRNA with vehicle only (fraction of control) |
| --- | --- | --- | --- | --- | --- | --- |
| CDKN2D | 1 | 0.243 (active) | -0.231 | -0.149 | 0.21 | 0.832 |
| CDKN2D | 2 | 0.0272 | 0.0459 | -0.148 | 0.322 | 0.642 |
| CDKN2D | 3 | 0.247 (active) | -0.178 | -0.0614 | 0.297 | 1 |
| CDKN2D | 4 | 0.269 (active) | 0.0175 | -0.0275 | 0.107 | 0.692 |
| PIK3CA | 1 | -0.00142 | -0.201 | -0.145 | 0.4 | 0.732 |
| PIK3CA | 2 | 0.197 (active) | -0.075 | -0.025 | 0.302 | 0.919 |
| PIK3CA | 3 | 0.108 (active) | -0.204 | -0.163 | 0.403 | 0.94 |
| PIK3CA | 4 | 0.12 (active) | -0.212 | -0.11 | 0.423 | 1 |
| MAPK4 | 1 | 0.0327 | -0.0865 | -0.0809 | 0.425 | 0.841 |
| MAPK4 | 2 | 0.0717 | -0.0453 | -0.151 | 0.333 | 0.745 |
| MAPK4 | 3 | 0.318 (active) | -0.00712 | 0.107 | 0.196 | 0.945 |
| MAPK4 | 4 | 0.069 | -0.127 | -0.189 | 0.195 | 0.486 |
| CDK6 | 1 | 0.0786 | -0.0255 | 0.0454 | 0.377 | 0.838 |
| CDK6 | 2 | 0.0618 | -0.14 | 0.0054 | 0.11 | 0.316 |
| CDK6 | 3 | 0.0717 | -0.15 | -0.0154 | 0.437 | 0.936 |
| CDK6 | 4 | 0.213 (active) | -0.0968 | 0.0988 | 0.273 | 0.895 |
| EPHA6 | 1 | 0.111 (active) | -0.188 | -0.202 | 0.236 | 0.637 |
| EPHA6 | 2 | 0.031 | -0.0935 | -0.0763 | 0.131 | 0.297 |
| EPHA6 | 3 | 0.0452 | -0.139 | -0.0305 | 0.184 | 0.421 |
| EPHA6 | 4 | 0.131 (active) | -0.029 | -0.0367 | 0.387 | 0.952 |
